Source: PubChem BioAssay AID1259276 (Sanger Institute, 2017)
Aim: 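Find kinases whose silencing cuts viability alone or combined with BYL719, cetuximab or trametinib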 (primary screen). Cells: human C2BBe1 colorectal cancer cells. Knock-down reagent: siRNA pool against human genes. Challenge: DMSO vehicle, or one anchor drug: BYL719 at 1 µM, cetuximab at 5 µg/ml, or trametinib at 10 nM; exposure length not stated. Read-out: 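Viability after knock-down relative to non-targeting siRNA controls, averaged across replicates, given as ratio and control-derived robust z-score, with per-drug synergy scores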. Reading the numbers: viability robust z-score, siRNA alone: higher = more viable cells after knock-down. Rule for the call: 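a siRNA pool tested without drug is essential if its viability robust z-score falls under -3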. Meaning of the calls: active = essential (siRNA alone); inactive = no change (siRNA alone).
The whole screen tested 794 reagents; below is a part drawn at random. 24 of all reagents (3%) were called active. 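Calls come only from the siRNA-alone arm; drug synergy scores do not affect them.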 Not all columns of the deposit are shown. Not given: the amount of reagent, the time to read-out.

| gene symbol | viability robust z-score, siRNA alone | outcome |
| --- | --- | --- |
| PIM3 (GeneID 415116) | 0.472 | inactive |
| FYN (GeneID 2534) | 0.472 | inactive |
| WEE1 (GeneID 7465) | -3.18 | active |
| PKN1 (GeneID 5585) | 0.472 | inactive |
| JAK2 (GeneID 3717) | -2.51 | inactive |
| CDK1 (GeneID 983) | 0.472 | inactive |
| PEAK1 (GeneID 79834) | -2.8 | inactive |
| KCNH2 (GeneID 3757) | 0.472 | inactive |
| RFK (GeneID 55312) | 0.472 | inactive |
| CDK4 (GeneID 1019) | 0.472 | inactive |
| HCK (GeneID 3055) | 0.472 | inactive |
| PKIA (GeneID 5569) | 0.138 | inactive |
| EPHA2 (GeneID 1969) | -0.0483 | inactive |
| PTEN (GeneID 5728) | 0.129 | inactive |
| TSSK1B (GeneID 83942) | 0.472 | inactive |
| GAK (GeneID 2580) | 0.472 | inactive |
| KMT2B (GeneID 9757) | 0.472 | inactive |
| FXR1 (GeneID 8087) | -1.66 | inactive |
| TRIB3 (GeneID 57761) | 0.472 | inactive |
| CDKL1 (GeneID 8814) | 0.472 | inactive |
| NME7 (GeneID 29922) | 0.472 | inactive |
| CSNK2A2 (GeneID 1459) | -3.11 | active |
| MAP3K3 (GeneID 4215) | 0.472 | inactive |
| PRKAA2 (GeneID 5563) | 0.472 | inactive |
| ERBB4 (GeneID 2066) | -1.65 | inactive |
| PIP4K2B (GeneID 8396) | 0.472 | inactive |
| BMP2K (GeneID 55589) | -2.61 | inactive |
| CAMK2D (GeneID 817) | 0.472 | inactive |
| WT1 (GeneID 7490) | 0.472 | inactive |
| MERTK (GeneID 10461) | -0.292 | inactive |
| TPK1 (GeneID 27010) | -1.19 | inactive |
| MAP4K3 (GeneID 8491) | 0.472 | inactive |
| CSNK1A1 (GeneID 1452) | 0.472 | inactive |
| PFKP (GeneID 5214) | -1.89 | inactive |
| EGFR (GeneID 1956) | -0.353 | inactive |
| IP6K1 (GeneID 9807) | 0.472 | inactive |
| PTPRU (GeneID 10076) | 0.332 | inactive |
| CUL1 (GeneID 8454) | 0.472 | inactive |
| EFNA3 (GeneID 1944) | 0.346 | inactive |
| ARID1A (GeneID 8289) | 0.472 | inactive |
| ROCK2 (GeneID 9475) | 0.263 | inactive |
| DAPK2 (GeneID 23604) | 0.472 | inactive |
| BRD4 (GeneID 23476) | 0.472 | inactive |
| CDK20 (GeneID 23552) | -0.529 | inactive |
| TGFBR3 (GeneID 7049) | 0.472 | inactive |
| PIK3R5 (GeneID 23533) | 0.472 | inactive |
| MAPKAPK5 (GeneID 8550) | 0.472 | inactive |
| ROCK1 (GeneID 6093) | 0.472 | inactive |
| WNK2 (GeneID 65268) | 0.472 | inactive |
| LATS2 (GeneID 26524) | 0.472 | inactive |
| PANK4 (GeneID 55229) | 0.0651 | inactive |
| MAPK6 (GeneID 5597) | 0.472 | inactive |
| SGK1 (GeneID 6446) | 0.472 | inactive |
| RYK (GeneID 6259) | 0.472 | inactive |
| PAPSS2 (GeneID 9060) | -1.58 | inactive |
| PIKFYVE (GeneID 200576) | 0.472 | inactive |
| NUP107 (GeneID 57122) | 0.472 | inactive |
| PSKH1 (GeneID 5681) | 0.472 | inactive |
| CDK7 (GeneID 1022) | 0.472 | inactive |
| PTGS1 (GeneID 5742) | -2.12 | inactive |
| CASK (GeneID 8573) | 0.472 | inactive |
| TPD52L3 (GeneID 89882) | 0.472 | inactive |
| SRMS (GeneID 6725) | 0.472 | inactive |

3 of these entries in another layout.
PANK4 (GeneID 55229) — viability robust z-score, siRNA alone = 0.0651; outcome = inactive
MAPK6 (GeneID 5597) — viability robust z-score, siRNA alone = 0.472; outcome = inactive
SGK1 (GeneID 6446) — viability robust z-score, siRNA alone = 0.472; outcome = inactive
